PubChem BioAssay AID1259322, Peter MacCallum Cancer Centre, 2017
Test: 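Confirm kinase hits connecting PAR2, a protease receptor, with TRPV4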 (follow-up of hits). System: human HEK293 cells with stable inducible TRPV4. Knock-down reagent: single siRNA against human genes. Treatment: PAR2 activation; agonist identity, dose and timing not stated. Measurement: 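Fura-2 imaging of cytosolic calcium over time, first peak marking PAR2 and later plateau marking TRPV4 opening; both relative to mock on each plate, mean of two plates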. Direction: TRPV4 plateau calcium, % of mock: higher = stronger PAR2-dependent TRPV4 calcium entry; PAR2 peak calcium, % of mock: higher = stronger direct PAR2 calcium response. Active means: 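Scored active if TRPV4 plateau drops under 90% of mock while PAR2 peak is kept above 79% of mock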.
The whole screen tested 208 reagents; shown is an unselected part. Over the whole deposit, 72 (35%) got an active call. 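Four separate siRNAs per kinase gene, 52 genes in all; PAR2 agonist unnamed, with its dose and timing unknown.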 Reagents against one gene are numbered here. Not given: the amount of reagent, the time to read-out.

Gene,reagent,"TRPV4 plateau calcium, % of mock","PAR2 peak calcium, % of mock",outcome
HK2 (GeneID 3099),1,60,58.7,inactive
HK2 (GeneID 3099),2,81.8,84.7,active
HK2 (GeneID 3099),3,101,98.1,inactive
HK2 (GeneID 3099),4,81.4,90.2,active
COMMD3 (GeneID 23412),1,66.1,78.7,inactive
COMMD3 (GeneID 23412),2,99.1,94.3,inactive
COMMD3 (GeneID 23412),3,74.9,75.1,inactive
COMMD3 (GeneID 23412),4,58.9,56.5,inactive
MAPK9 (GeneID 5601),1,97.6,102,inactive
MAPK9 (GeneID 5601),2,92.8,92.2,inactive
MAPK9 (GeneID 5601),3,81.3,92.9,active
MAPK9 (GeneID 5601),4,98.7,110,inactive
LIMK2 (GeneID 3985),1,89.2,102,active
LIMK2 (GeneID 3985),2,72.4,79.6,active
LIMK2 (GeneID 3985),3,79.1,72.3,inactive
LIMK2 (GeneID 3985),4,96.8,102,inactive
MAST1 (GeneID 22983),1,87.8,86.4,inactive
MAST1 (GeneID 22983),2,85.1,94.5,active
MAST1 (GeneID 22983),3,84.1,88.2,inactive
MAST1 (GeneID 22983),4,76.5,93.6,active
BUB1 (GeneID 699),1,73.4,76.6,inactive
BUB1 (GeneID 699),2,70.3,82.3,active
BUB1 (GeneID 699),3,74,86.2,active
BUB1 (GeneID 699),4,70.8,81.3,active
FGFR4 (GeneID 2264),1,82.2,86.9,active
FGFR4 (GeneID 2264),2,55.6,62.6,inactive
FGFR4 (GeneID 2264),3,91.5,101,inactive
FGFR4 (GeneID 2264),4,65.5,74.8,inactive
PRPS1 (GeneID 5631),1,102,97.3,inactive
PRPS1 (GeneID 5631),2,63.4,58.7,inactive
PRPS1 (GeneID 5631),3,82,88.9,active
PRPS1 (GeneID 5631),4,88.7,84,active
FASTK (GeneID 10922),1,96.2,102,inactive
FASTK (GeneID 10922),2,87.1,88.8,active
FASTK (GeneID 10922),3,80,90.8,active
FASTK (GeneID 10922),4,98.5,101,inactive

Continued, starting with the last 13 of the part before.
Gene,reagent,"TRPV4 plateau calcium, % of mock","PAR2 peak calcium, % of mock",outcome
BUB1 (GeneID 699),4,70.8,81.3,active
FGFR4 (GeneID 2264),1,82.2,86.9,active
FGFR4 (GeneID 2264),2,55.6,62.6,inactive
FGFR4 (GeneID 2264),3,91.5,101,inactive
FGFR4 (GeneID 2264),4,65.5,74.8,inactive
PRPS1 (GeneID 5631),1,102,97.3,inactive
PRPS1 (GeneID 5631),2,63.4,58.7,inactive
PRPS1 (GeneID 5631),3,82,88.9,active
PRPS1 (GeneID 5631),4,88.7,84,active
FASTK (GeneID 10922),1,96.2,102,inactive
FASTK (GeneID 10922),2,87.1,88.8,active
FASTK (GeneID 10922),3,80,90.8,active
FASTK (GeneID 10922),4,98.5,101,inactive
RPS6KA3 (GeneID 6197),1,97.8,95.7,inactive
RPS6KA3 (GeneID 6197),2,99.1,109,inactive
RPS6KA3 (GeneID 6197),3,98.1,103,inactive
RPS6KA3 (GeneID 6197),4,97.7,104,inactive
BRSK2 (GeneID 9024),1,99.2,99.6,inactive
BRSK2 (GeneID 9024),2,91.8,101,inactive
BRSK2 (GeneID 9024),3,89.6,101,active
BRSK2 (GeneID 9024),4,84.7,91.7,active
STK39 (GeneID 27347),1,79.6,84.7,active
STK39 (GeneID 27347),2,65.8,60.4,inactive
STK39 (GeneID 27347),3,87.9,90.4,active
STK39 (GeneID 27347),4,60.6,69.3,inactive
CAMKK1 (GeneID 84254),1,91.7,99.9,inactive
CAMKK1 (GeneID 84254),2,84.7,88,active
CAMKK1 (GeneID 84254),3,95.5,96.6,inactive
CAMKK1 (GeneID 84254),4,85.9,110,active
NEK2 (GeneID 4751),1,98,93.8,inactive
NEK2 (GeneID 4751),2,78.9,81.4,active
NEK2 (GeneID 4751),3,68.9,67.4,inactive
NEK2 (GeneID 4751),4,76.2,80.6,active
PRKX (GeneID 5613),1,90.9,102,inactive
PRKX (GeneID 5613),2,103,109,inactive
PRKX (GeneID 5613),3,106,101,inactive
PRKX (GeneID 5613),4,70.2,84.6,active
WNK4 (GeneID 65266),1,70.8,83.9,active
WNK4 (GeneID 65266),2,82.3,101,active
WNK4 (GeneID 65266),3,87.4,101,active
WNK4 (GeneID 65266),4,78.4,75.3,inactive
PKM (GeneID 5315),1,64.6,67.7,inactive
PKM (GeneID 5315),2,104,93.1,inactive
PKM (GeneID 5315),3,94.8,100,inactive
PKM (GeneID 5315),4,85.6,92.8,active
CDK15 (GeneID 65061),1,71.6,73.2,inactive
CDK15 (GeneID 65061),2,107,101,inactive
CDK15 (GeneID 65061),3,89.6,88.1,active
CDK15 (GeneID 65061),4,93.5,96.6,inactive
CAMKV (GeneID 79012),1,84.7,94.4,active
CAMKV (GeneID 79012),2,99.6,92,inactive
CAMKV (GeneID 79012),3,99.2,105,inactive
CAMKV (GeneID 79012),4,83.2,72.9,inactive
STRADA (GeneID 92335),1,84.7,96.4,active
STRADA (GeneID 92335),2,79.2,79.1,active
STRADA (GeneID 92335),3,63.2,75.9,inactive
STRADA (GeneID 92335),4,68,70.3,inactive
RPS6KB1 (GeneID 6198),1,93.5,95.6,inactive
RPS6KB1 (GeneID 6198),2,117,113,inactive
RPS6KB1 (GeneID 6198),3,92.1,99.6,inactive
RPS6KB1 (GeneID 6198),4,104,96,inactive
CDKL5 (GeneID 6792),1,100,98,inactive
CDKL5 (GeneID 6792),2,96.3,84,inactive
CDKL5 (GeneID 6792),3,103,103,inactive
CDKL5 (GeneID 6792),4,85.9,98.1,active
TWF2 (GeneID 11344),1,70.1,67.8,inactive
TWF2 (GeneID 11344),2,67.7,70.2,inactive
TWF2 (GeneID 11344),3,86,81.6,active
TWF2 (GeneID 11344),4,82.8,87.1,active
CHKA (GeneID 1119),1,95.6,101,inactive
CHKA (GeneID 1119),2,69.1,64.1,inactive
CHKA (GeneID 1119),3,101,104,inactive
CHKA (GeneID 1119),4,91.6,84.1,inactive
RIOK1 (GeneID 83732),1,102,96.3,inactive
RIOK1 (GeneID 83732),2,94.6,91.8,inactive
RIOK1 (GeneID 83732),3,78.4,84.4,active
RIOK1 (GeneID 83732),4,84.7,91.2,active
CMPK1 (GeneID 51727),1,98.3,95.3,inactive
CMPK1 (GeneID 51727),2,71,75.6,inactive
CMPK1 (GeneID 51727),3,75.5,76.1,inactive
CMPK1 (GeneID 51727),4,75.7,78.7,inactive
PIK3C3 (GeneID 5289),1,70.4,70,inactive
PIK3C3 (GeneID 5289),2,82.2,102,active
PIK3C3 (GeneID 5289),3,68.9,69.5,inactive
PIK3C3 (GeneID 5289),4,99.6,94.8,inactive
